Measured values published in article PMC7450096, “Structural mechanism for replication origin binding and remodeling by a metazoan origin recognition complex and its co-loader Cdc6” (Nature Communications, 2020).
These are yes or no findings as the source states them, for the method shown. Some binding calls cover weakened binding; strength is not graded here.

Legend:
Experiment in all cases: cryo-EM structure; DmORC^Orc1ΔN (2.5 μM), duplex DNA (3 μM; 60 bp AT-rich, 84 bp AT-rich, 60 bp poly(dA·dT) or 60 bp GC-rich) and DmCdc6ΔN (6.8 μM) assembled at 25 °C in 25 mM HEPES-KOH pH 7.6, 250 mM potassium acetate, 10 mM magnesium acetate, 1 mM DTT, 1 mM ATP; purified by gel filtration; both purified
[1] = target: T1, Drosophila Orc2, subunit of DmORC^Orc1ΔN (Drosophila, UniProt Q24168 1-618)
T1 construct: Orc2, Drosophila; only Orc1 is named as truncated in DmORC^Orc1ΔN; also called DmOrc2; source: Hi5 insect cells, co-expressed with the other ORC subunits, purified as part of DmORC^Orc1ΔN
T1 sequence: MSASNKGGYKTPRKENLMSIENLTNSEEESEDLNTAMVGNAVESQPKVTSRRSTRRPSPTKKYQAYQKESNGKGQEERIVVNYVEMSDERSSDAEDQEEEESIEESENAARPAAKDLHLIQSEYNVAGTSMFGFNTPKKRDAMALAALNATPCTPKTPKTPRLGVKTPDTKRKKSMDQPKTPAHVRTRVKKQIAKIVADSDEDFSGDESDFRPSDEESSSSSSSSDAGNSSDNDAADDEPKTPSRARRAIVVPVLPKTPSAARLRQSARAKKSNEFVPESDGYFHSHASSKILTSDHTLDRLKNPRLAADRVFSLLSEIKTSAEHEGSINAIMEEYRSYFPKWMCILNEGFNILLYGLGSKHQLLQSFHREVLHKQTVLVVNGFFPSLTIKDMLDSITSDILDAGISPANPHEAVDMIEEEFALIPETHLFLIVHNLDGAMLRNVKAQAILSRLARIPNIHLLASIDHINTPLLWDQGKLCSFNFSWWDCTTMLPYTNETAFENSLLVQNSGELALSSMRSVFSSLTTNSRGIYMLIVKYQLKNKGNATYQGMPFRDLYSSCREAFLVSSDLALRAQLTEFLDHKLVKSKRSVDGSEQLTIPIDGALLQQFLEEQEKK

[2] = target: T2, Drosophila Orc5, subunit of DmORC^Orc1ΔN (Drosophila) (UniProt Q24169)
T2 sequence: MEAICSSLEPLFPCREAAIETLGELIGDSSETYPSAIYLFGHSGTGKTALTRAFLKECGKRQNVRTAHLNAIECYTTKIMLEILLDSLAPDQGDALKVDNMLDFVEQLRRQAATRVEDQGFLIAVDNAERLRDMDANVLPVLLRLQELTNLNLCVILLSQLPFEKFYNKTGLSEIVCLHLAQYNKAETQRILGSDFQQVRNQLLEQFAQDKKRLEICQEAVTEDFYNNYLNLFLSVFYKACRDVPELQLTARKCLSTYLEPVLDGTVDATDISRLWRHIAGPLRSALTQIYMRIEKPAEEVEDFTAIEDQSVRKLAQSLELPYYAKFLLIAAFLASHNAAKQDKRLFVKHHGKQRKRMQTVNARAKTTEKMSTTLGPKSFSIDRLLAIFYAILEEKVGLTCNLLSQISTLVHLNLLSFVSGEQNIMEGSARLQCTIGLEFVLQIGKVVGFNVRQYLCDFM

[3] = target: T3, Drosophila Orc3, subunit of DmORC^Orc1ΔN (Drosophila, UniProt Q7K2L1 1-721)
T3 construct: Orc3, Drosophila; only Orc1 is named as truncated in DmORC^Orc1ΔN; also called DmOrc3; source: Hi5 insect cells, co-expressed with the other ORC subunits, purified as part of DmORC^Orc1ΔN
T3 sequence: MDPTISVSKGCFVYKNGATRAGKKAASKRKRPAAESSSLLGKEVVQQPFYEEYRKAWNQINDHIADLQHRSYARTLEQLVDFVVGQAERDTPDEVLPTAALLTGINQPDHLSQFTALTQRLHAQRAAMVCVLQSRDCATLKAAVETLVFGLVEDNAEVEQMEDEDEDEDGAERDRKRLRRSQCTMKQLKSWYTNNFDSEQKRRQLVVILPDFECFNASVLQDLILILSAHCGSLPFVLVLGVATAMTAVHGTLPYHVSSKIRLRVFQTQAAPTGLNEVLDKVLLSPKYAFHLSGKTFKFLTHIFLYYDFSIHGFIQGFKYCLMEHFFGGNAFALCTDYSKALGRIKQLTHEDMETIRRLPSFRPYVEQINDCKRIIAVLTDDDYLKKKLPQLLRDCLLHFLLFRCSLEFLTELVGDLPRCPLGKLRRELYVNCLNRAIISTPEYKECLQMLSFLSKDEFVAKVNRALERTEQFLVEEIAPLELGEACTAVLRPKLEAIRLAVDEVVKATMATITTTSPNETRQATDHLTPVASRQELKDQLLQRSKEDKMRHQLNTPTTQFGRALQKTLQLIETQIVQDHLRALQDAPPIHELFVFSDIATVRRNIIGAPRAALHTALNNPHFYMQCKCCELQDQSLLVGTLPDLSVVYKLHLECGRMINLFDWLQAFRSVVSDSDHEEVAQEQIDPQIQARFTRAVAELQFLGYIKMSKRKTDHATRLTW

B1: Drosophila Orc3, subunit of DmORC^Orc1ΔN (protein, UniProt Q7K2L1 1-721)
chain: T3 sequence
binding [1]: binds

B2: Drosophila Orc4, subunit of DmORC^Orc1ΔN (protein, UniProt Q9W102 1-459)
chain: MPEADRELVSIRRFLKERLQRDYTTLRGYAKERSNVRLLLQRTAEMGESNSLLLLGPRGSGKTTLINSVLADLLPNKSFGENTLIVHLDGNLHTDDRVALKSITVQMQLENAADGKVFGSFAENLAFLLQCLKAGGKHSKSVIFILEEFDLFCAHHNQTLLYNLFDVSQSAQAPICVLGVTCRLDVIELLEKRVKSRFSHRQVFLFPSLRRFEDYVDLCRDLLSLPTGNSLLLAAEKIYNLQNIQSGALYFSRNHFDPGEYGFSPRLRDAWNKQICKVLATQQARSTLQALHDFDISEAYLKNFLFRLVAHLRPQSPHITAEKMAAVGSQFEGDDKIELLCGLSVLELCLIIAIKHHSQIYDRDSFNFEIIYARFSKFAKVSTTMQAVERSIVLKAFEHLRIAELIMPLTGGAGGGVGKVQKEFEMHKLALTYSQIHHCMQRYQALPTEVAQWAQSSLI
binding [2]: binds

B3: Drosophila Orc5, subunit of DmORC^Orc1ΔN (protein, UniProt Q24169 1-460)
chain: T2 sequence
binding [3]: binds
